Source: PubChem BioAssay AID2685 (National Center for Advancing Translational Sciences (NCATS), 2010)
About 2,100 (0.66%) of roughly 320,000 compounds were called active. The shares of active, inactive and inconclusive entries below differ from those in the screen. Calls follow the shape of the dose curve; as a rule, active = well fitted inhibition curve with a large enough effect in the signal ratio, with a control signal flat (not every such curve was filed as active); inconclusive = small, poorly fitted or top-dose-only effect, or effect the other way, or a change in a side signal; inactive = flat fitted curve, though single readings scatter; the % refers to the signal ratio. A potency beside an inconclusive call is a rough fit, not a confirmed value.

Experiment: qHTS Assay for Lipid Storage Modulators in Drosophila S3 Cells
Settings: BODIPY lipid droplet fluorescence, 18-24 h, cells fed with added oleic acid; lipid storage change, negative = inhibition: at 46.1 µM (top of the series) unless noted
In short: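 Drosophila S3 cells loaded with oleic acid (400 uM, as added) and compounds at several concentrations; lipid droplets imaged by 488-nm laser-scanning cytometry, 500–530 nm intensity and object ratio to cell channel. Percent activity normalized to 20 uM Triacsin C.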
% is scaled to controls: 0 for no effect and ±100 for the full control effect; potency is read from the fitted curve at half-maximal effect.

SMILES	lipid storage change, negative = inhibition	Potency
CC(C)(C)n1nnnc1CN1CCC(NC(=O)NC2CCCCC2)CC1	inconclusive: 26.1%	–
Cc1cc(=O)n(C)c2ccccc12	inconclusive: 26.4%	–
CCCc1c(C)nn(-c2ncccc2[N+](=O)[O-])c1C	–	inconclusive: 29.1 µM [falling, single point]
Cc1onc(-c2c(F)cccc2Cl)c1C(=O)ONC(=O)c1ccccc1	inactive	–
COc1ccc(NC(=O)CSc2nnc(-c3cccs3)n2C)cc1OC	inconclusive: -0.0058%	–
O=C(COc1ccccc1)Nc1ccc(S(=O)(=O)N2CCOCC2)cc1	inconclusive: -12.3%	–
CCc1ccc2nc3nc(C)cc(C)c3c(N)c2c1	inconclusive: 13.3%	–
Cc1occc1C(=O)NNS(=O)(=O)c1ccc([N+](=O)[O-])cc1	inconclusive: -166%	–
CC(Sc1nccn1C)C(=O)NC1(C#N)CCCCC1 (stereo not given)	inconclusive: -0.0547%	–
COc1ccc(/C=C(\C#N)C(=O)OCC(=O)NC2CC2)cc1	inconclusive: 51.2%	–
Cc1ccccc1N1CC(C(=O)Nc2ccc(S(=O)(=O)N3CCCC3)cc2)CC1=O (stereo not given)	inconclusive: -14.1%	–
Cc1nn(C(C)C(=O)N2CCOCC2)c(=O)c2nn(-c3ccccc3)c(C)c12 (stereo not given)	inconclusive: 81.2%	–
CN1CCc2c(sc(NC(=O)C3COc4ccccc4O3)c2C(N)=O)C1 (stereo not given)	inconclusive: -22.1%	–
NC(=O)c1ccsc1NC(=O)COC(=O)COc1ccc(C=O)cc1	–	inconclusive: 6.51 µM [falling, single point]
Cc1ccc(S(=O)(=O)/N=C(\CN2CCOCC2)N2CCOCC2)cc1	inconclusive: 2.34%	–
COc1ccc(N(CC(=O)NC2CCS(=O)(=O)C2)S(=O)(=O)c2ccc(Cl)c(Cl)c2)cc1 (stereo not given)	inconclusive	–
CCN(CC(=O)Nc1ccc(Cl)c(S(=O)(=O)N(C)C)c1)CC(=O)NC(C)C	inconclusive: 16.2%	–
O=C(CCN1C(=O)c2ccccc2C1=O)C1=NN[C@@H]2C(=O)N(c3ccc(F)cc3)C(=O)[C@H]12	inconclusive: 15.4%	–
O=C(O)COCC(=O)Nc1ccc(Oc2ncnc3cc(Cl)ccc23)nc1	inconclusive: -11.2%	–
Cc1ccc(CNC(=O)c2ccc(N3CCC4(CC3)CC(c3cccc(Br)c3)=NO4)c([N+](=O)[O-])c2)cc1	inconclusive: 11.8%	–
Cn1c(=O)c2c3c(sc2n2cnnc12)CCC3	inconclusive: -47.5%	–
CCN(c1ccccc1)S(=O)(=O)c1ccc(F)cc1	inconclusive: 41.4%	–
Cc1ccc(S(=O)(=O)N2CCN(C(=O)COc3ccc(Br)cc3)CC2)cc1	inconclusive: -48.6%	–
CCN(Cc1ccccc1)c1ccc(/C=N/NC(=O)c2cccc(S(=O)(=O)N3CCOCC3)c2)cc1	–	inconclusive: 2.59 µM [activator, single point]
CCOC(=O)c1ccccc1N1C(=O)C2Sc3[nH]c(=O)sc3C(/C=C/c3ccccc3)C2C1=O (stereo not given)	inconclusive: 4.7%	–

Shown as comma-separated lines: three of the compounds above
SMILES,"lipid storage change, negative = inhibition",Potency
CCCc1c(C)nn(-c2ncccc2[N+](=O)[O-])c1C,–,"inconclusive: 29.1 µM [falling, single point]"
NC(=O)c1ccsc1NC(=O)COC(=O)COc1ccc(C=O)cc1,–,"inconclusive: 6.51 µM [falling, single point]"
Cc1ccc(S(=O)(=O)/N=C(\CN2CCOCC2)N2CCOCC2)cc1,inconclusive: 2.34%,–

Remaining list, next part.

SMILES	lipid storage change, negative = inhibition	Potency
COc1cc(/C=C/C(=O)OCC(=O)c2c(N)n(C)c(=O)n(C)c2=O)ccc1O	inconclusive: -62.7%	–
Cc1cc(-c2ccccc2)n2ncc(C#N)c2n1	inconclusive: 6.26%	–
CCc1ccc(CNC(=O)CN2C(=O)COc3ccccc32)cc1	inconclusive: 10.9%	–
Cc1cc(NC(=O)COC(=O)[C@H](C)NC(=O)c2ccccc2)no1	inconclusive: 17.9%	–
Cc1cc(C)nc(NC(=O)/C=C/c2cccs2)c1	inactive	–
COc1ccc(C(C(=O)NC2CCCCC2)N(C(=O)CCCC(=O)Nc2ccccn2)c2ccc3c(c2)OCCO3)cc1 (stereo not given)	–	inconclusive: 6.51 µM [activator, partial curve, poor fit]
C/C(=C\C(=O)c1ccc(Br)cc1)NCc1ccccc1	inconclusive: 13.3%	–
COc1cc(-c2nnc(SCC3(c4ccccc4)OCCO3)o2)cc(OC)c1OC	inconclusive: -0.0573%	–
CN(C)CCN(C(=O)c1ccc(S(=O)(=O)N(C)CC2CCCO2)cc1)c1nc2cc3c(cc2s1)OCO3 (stereo not given)	inconclusive: 8.31%	–
CC1CCN(C(=O)c2ccc3ccccc3c2)CC1	–	inconclusive: 6.51 µM [falling, single point]
COC(=O)c1ncn(C2OC(COC(C)=O)C(OC(C)=O)C2OC(C)=O)n1 (stereo not given)	inconclusive: 6.68%	–
O=C(Nc1nc2ccccc2n1CCN1CCOCC1)c1ccc(COc2ccccc2Br)o1	–	inconclusive: 0.13 µM [activator, full curve, poor fit]
COC(=O)[C@@H]1C(c2c(OC)cc(OC)cc2OC)=NO[C@H]1C(=O)OC	inconclusive: 3.52%	–
c1ccc(Cc2nnc(N3CCOCC3)c3ccccc23)cc1	–	inconclusive: 9.2 µM [rising, partial curve]
CCc1ccc(CN2CCC(n3nccc3NC(=O)c3ccc4c(c3)OCO4)CC2)cc1	–	inconclusive: 0.13 µM [activator, full curve, poor fit]
Cc1ccccc1S(=O)(=O)Cc1ccc(C(=O)N(C)C2CCCCC2)o1	inconclusive: 0.743%	–
CCCSc1nc(C)cc(C)c1S(C)(=O)=O	inconclusive: 7.54%	–
COCCN(C(=O)CCl)C(C(=O)NC1CCCCC1)c1ccccc1C (stereo not given)	–	active: 23.1 µM
O=C(NCc1ccco1)NC12CC3CC(CC(C3)C1)C2	inconclusive: 30.4%	–
COc1cccc(C2C(C#N)=C(N)Oc3cc(C)n(Cc4ccco4)c(=O)c32)c1 (stereo not given)	–	inconclusive: 20.6 µM [activator, single point]
COc1ccc(NC(=O)CN(C)C(=O)c2oc3ccccc3c2C)cc1	inconclusive: 20.9%	–
CCCCC1=CC2=C(c3ccco3)C(=O)C(C)(OC(=O)c3ccc(OC)cc3)C(=O)C2=CN1Cc1ccc(OC)cc1 (stereo not given)	–	inconclusive: 29.1 µM [falling, single point]
CCN1CCN(Cc2nc3c(c(=O)n(C)c(=O)n3C)n2CC(=O)c2ccccc2)CC1	inconclusive: -4.4%	–
O=C(Nc1sc2c(c1C(=O)O)CCCC2)c1ccc(F)cc1	inconclusive: 35.5%	–
O=C(NCCN1C(=O)S/C(=C\c2ccc(Cl)c(Cl)c2)C1=O)C1COc2ccccc2O1 (stereo not given)	inactive	–
